# Measured values taken from publication PMC8208971, “Copper-binding anticancer peptides from the piscidin family: an expanded mechanism that encompasses physical and chemical bilayer disruption” (Scientific Reports, 2021).
# Residues, ends and D or L forms follow the SMILES beside them.
# Assay: Neutron reflectometry: peptide distribution in tethered lipid bilayer
# Details: NR, 3 µmol/L peptide; for Peptide fraction in headgroups total / Peptide fraction in hydrocarbons total / Center-of-mass (COM) position of peptide with respect to the bilayer center / Membrane-associated peptide (volume surface density): POPC tBLM; for Center-of-mass (COM) position of peptide with respect to the bilayer center: 20 mmol/L Tris pH 7.5, 30 min incubation; for Membrane-associated peptide (volume surface density): ± one standard deviation; for Peptide fraction in outer leaflet: leaflet exposed to bulk fluid; for Peptide fraction in inner leaflet: leaflet proximal to gold substrate
smiles,measurement,value
"CC[C@H](C)[C@H](NC(=O)CNC(=O)[C@H](CCCNC(=N)N)NC(=O)[C@H](Cc1ccccc1)NC(=O)[C@@H](NC(=O)[C@H](Cc1c[nH]cn1)NC(=O)[C@H](Cc1c[nH]cn1)NC(=O)[C@H](Cc1ccccc1)NC(=O)[C@@H](N)Cc1ccccc1)[C@@H](C)CC)C(=O)N[C@H](C(=O)N[C@@H](Cc1c[nH]cn1)C(=O)N[C@H](C(=O)NCC(=O)N[C@@H](CCCCN)C(=O)N[C@H](C(=O)N[C@H](C(=O)N[C@@H](Cc1c[nH]cn1)C(=O)N[C@@H](CCCNC(=N)N)C(=O)N[C@@H](CC(C)C)C(=O)N[C@H](C(=O)N[C@H](C(=O)NCC(N)=O)[C@@H](C)O)C(C)C)[C@@H](C)CC)[C@@H](C)O)C(C)C)C(C)C [P1, piscidin 1] (H-FFHHIFRGIVHVGKTIHRLVTG-NH2)",Peptide fraction in headgroups total,33 ± 9%
same,Peptide fraction in hydrocarbons total,50 ± 10%
same,Center-of-mass (COM) position of peptide with respect to the bilayer center,2 ± 2 Å
same,Membrane-associated peptide (volume surface density),10 ± 3 Å3/Å2
same,Peptide fraction in outer leaflet,43 ± 6%
same,Peptide fraction in inner leaflet,40 ± 7%
CC[C@H](C)[C@H](NC(=O)CNC(=O)[C@H](CCCNC(=N)N)NC(=O)[C@H](Cc1ccccc1)NC(=O)[C@@H](NC(=O)[C@H](Cc1c[nH]cn1)NC(=O)[C@H](Cc1c[nH]cn1)NC(=O)[C@@H](NC(=O)[C@@H](N)Cc1ccccc1)[C@@H](C)CC)[C@@H](C)CC)C(=O)N[C@H](C(=O)N[C@@H](Cc1c[nH]cn1)C(=O)N[C@@H](C)C(=O)NCC(=O)N[C@@H](CCCNC(=N)N)C(=O)N[C@@H](CO)C(=O)N[C@H](C(=O)NCC(=O)N[C@@H](CCCNC(=N)N)C(=O)N[C@@H](Cc1ccccc1)C(=O)N[C@@H](CC(C)C)C(=O)N[C@H](C(=O)NCC(N)=O)[C@@H](C)O)[C@@H](C)CC)C(C)C [P3-Cu^2+] (H-FIHHIFRGIVHAGRSIGRFLTG-NH2; N-terminus assumed),Peptide fraction in headgroups total,37 ± 3%
same,Peptide fraction in hydrocarbons total,37 ± 5%
same,Center-of-mass (COM) position of peptide with respect to the bilayer center,3 ± 1 Å
same,Membrane-associated peptide (volume surface density),11 ± 2 Å3/Å2
same,Peptide fraction in outer leaflet,43 ± 3%
same,Peptide fraction in inner leaflet,32 ± 5%
CC[C@H](C)[C@H](NC(=O)CNC(=O)[C@H](CCCNC(=N)N)NC(=O)[C@H](Cc1ccccc1)NC(=O)[C@@H](NC(=O)[C@H](Cc1c[nH]cn1)NC(=O)[C@H](Cc1c[nH]cn1)NC(=O)[C@H](Cc1ccccc1)NC(=O)[C@@H](N)Cc1ccccc1)[C@@H](C)CC)C(=O)N[C@H](C(=O)N[C@@H](Cc1c[nH]cn1)C(=O)N[C@H](C(=O)NCC(=O)N[C@@H](CCCCN)C(=O)N[C@H](C(=O)N[C@H](C(=O)N[C@@H](Cc1c[nH]cn1)C(=O)N[C@@H](CCCNC(=N)N)C(=O)N[C@@H](CC(C)C)C(=O)N[C@H](C(=O)N[C@H](C(=O)NCC(N)=O)[C@@H](C)O)C(C)C)[C@@H](C)CC)[C@@H](C)O)C(C)C)C(C)C [P1-Cu^2+] (H-FFHHIFRGIVHVGKTIHRLVTG-NH2; N-terminus assumed),Peptide fraction in headgroups total,34 ± 2%
same,Peptide fraction in hydrocarbons total,46 ± 3%
same,Center-of-mass (COM) position of peptide with respect to the bilayer center,1 ± 1 Å
same,Membrane-associated peptide (volume surface density),12 ± 2 Å3/Å2
same,Peptide fraction in outer leaflet,32 ± 4%
same,Peptide fraction in inner leaflet,49 ± 6%
"CC[C@H](C)[C@H](NC(=O)CNC(=O)[C@H](CCCNC(=N)N)NC(=O)[C@H](Cc1ccccc1)NC(=O)[C@@H](NC(=O)[C@H](Cc1c[nH]cn1)NC(=O)[C@H](Cc1c[nH]cn1)NC(=O)[C@@H](NC(=O)[C@@H](N)Cc1ccccc1)[C@@H](C)CC)[C@@H](C)CC)C(=O)N[C@H](C(=O)N[C@@H](Cc1c[nH]cn1)C(=O)N[C@@H](C)C(=O)NCC(=O)N[C@@H](CCCNC(=N)N)C(=O)N[C@@H](CO)C(=O)N[C@H](C(=O)NCC(=O)N[C@@H](CCCNC(=N)N)C(=O)N[C@@H](Cc1ccccc1)C(=O)N[C@@H](CC(C)C)C(=O)N[C@H](C(=O)NCC(N)=O)[C@@H](C)O)[C@@H](C)CC)C(C)C [P3, piscidin 3] (H-FIHHIFRGIVHAGRSIGRFLTG-NH2)",Peptide fraction in headgroups total,45 ± 6%
same,Peptide fraction in hydrocarbons total,31 ± 8%
same,Center-of-mass (COM) position of peptide with respect to the bilayer center,5 ± 2 Å
same,Membrane-associated peptide (volume surface density),8 ± 2 Å3/Å2
same,Peptide fraction in outer leaflet,44 ± 6%
same,Peptide fraction in inner leaflet,32 ± 6%
